For the assay, the target named is T1, HURP (Hepatoma Upregulated Protein) (human (endogenous in HeLa Kyoto)) (UniProt Q15398).
T1 sequence: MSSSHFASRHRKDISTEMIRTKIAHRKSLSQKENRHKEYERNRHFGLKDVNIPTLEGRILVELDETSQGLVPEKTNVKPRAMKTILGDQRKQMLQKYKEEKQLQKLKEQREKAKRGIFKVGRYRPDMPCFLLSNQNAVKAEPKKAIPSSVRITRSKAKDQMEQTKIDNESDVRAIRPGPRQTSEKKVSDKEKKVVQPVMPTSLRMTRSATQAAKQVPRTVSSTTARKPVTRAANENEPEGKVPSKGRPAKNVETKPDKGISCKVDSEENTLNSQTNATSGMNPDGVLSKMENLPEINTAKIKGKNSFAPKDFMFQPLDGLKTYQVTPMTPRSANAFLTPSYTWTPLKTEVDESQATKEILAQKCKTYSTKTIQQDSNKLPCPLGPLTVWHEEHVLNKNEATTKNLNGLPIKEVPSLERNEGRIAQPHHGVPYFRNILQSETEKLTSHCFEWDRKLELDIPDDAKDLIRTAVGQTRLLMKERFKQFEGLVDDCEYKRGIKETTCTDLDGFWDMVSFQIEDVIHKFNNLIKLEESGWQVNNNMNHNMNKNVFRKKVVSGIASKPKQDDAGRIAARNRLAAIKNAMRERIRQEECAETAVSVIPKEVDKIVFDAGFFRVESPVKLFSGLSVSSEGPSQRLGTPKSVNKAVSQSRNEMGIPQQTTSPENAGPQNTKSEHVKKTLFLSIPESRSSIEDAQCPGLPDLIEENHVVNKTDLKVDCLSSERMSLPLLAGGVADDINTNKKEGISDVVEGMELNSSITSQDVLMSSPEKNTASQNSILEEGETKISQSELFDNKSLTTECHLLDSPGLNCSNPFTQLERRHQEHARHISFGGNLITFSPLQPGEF
As to the kind of experiment: affinity purification with mass spectrometry; HeLa Kyoto mitotic extracts immunoprecipitated with an antibody against HURP; isolated complexes analysed by LC-MS/MS.

Chains of the proteins cited; added tags and fusions are not shown.
UniProt P33176: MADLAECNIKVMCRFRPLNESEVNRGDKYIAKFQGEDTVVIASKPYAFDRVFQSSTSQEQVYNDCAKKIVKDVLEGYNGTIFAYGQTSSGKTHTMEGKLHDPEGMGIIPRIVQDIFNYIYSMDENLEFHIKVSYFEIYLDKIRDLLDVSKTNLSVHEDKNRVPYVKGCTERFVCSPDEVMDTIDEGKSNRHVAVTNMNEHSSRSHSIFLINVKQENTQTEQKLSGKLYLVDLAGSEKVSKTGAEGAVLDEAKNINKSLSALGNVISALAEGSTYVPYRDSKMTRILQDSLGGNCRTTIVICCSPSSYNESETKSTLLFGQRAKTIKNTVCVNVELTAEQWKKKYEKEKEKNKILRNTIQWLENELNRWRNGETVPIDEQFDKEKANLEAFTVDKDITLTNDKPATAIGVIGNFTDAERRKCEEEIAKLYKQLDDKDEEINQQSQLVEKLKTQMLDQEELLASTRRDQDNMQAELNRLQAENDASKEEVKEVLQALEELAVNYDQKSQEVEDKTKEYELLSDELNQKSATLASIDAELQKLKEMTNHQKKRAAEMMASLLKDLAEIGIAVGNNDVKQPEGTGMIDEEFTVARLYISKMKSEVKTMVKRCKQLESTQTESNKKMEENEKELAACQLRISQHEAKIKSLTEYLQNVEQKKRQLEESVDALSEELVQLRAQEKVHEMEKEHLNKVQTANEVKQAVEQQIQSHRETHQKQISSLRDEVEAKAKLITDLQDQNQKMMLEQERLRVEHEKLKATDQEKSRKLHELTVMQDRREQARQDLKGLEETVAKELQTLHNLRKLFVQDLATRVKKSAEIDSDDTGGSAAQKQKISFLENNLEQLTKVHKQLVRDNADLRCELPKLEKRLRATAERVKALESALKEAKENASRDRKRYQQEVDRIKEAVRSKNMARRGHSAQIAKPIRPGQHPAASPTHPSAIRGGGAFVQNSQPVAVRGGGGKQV

These are yes or no findings as the source states them, for the method shown. Binding seen in cells or lysates may run through a third protein. These calls come from enrichment with a bait or labelling near it, and not all partners need be listed.

Regarding Kif5B (from UniProt P33176 1-963), the binding entry was “binds”.

(Values after article PMC10361663.)
